Experiment: Evaluation of luminescent characteristics of organic EL device
Details: for External quantum efficiency (%): at 100 cd/m^2, average of four devices; for Emission Uniformity / Luminescent color: organic EL device, luminescent layer of complex in poly(N-vinylcarbazole)
Protocol: An organic EL device was produced with use of a substrate (manufactured by Nippo Electric Co., Ltd.) provided with ITO (indium tin oxide) which was composed of a 25 mm square glass substrate and in which two stripe ITO electrodes having a width of 4 mm were formed as anodes on one surface. First, the substrate with the ITO electrodes (anodes) was spin coated with poly(3,4-ethylenedioxythiophene)-polystyrenesulfonic acid (trade name “Baytron P”, manufactured by Bayer AG) at 3500 rpm for a coating time of 40 seconds. The coating was dried at 60° C. for 2 hours under reduced pressure in a vacuum drying machine to form an anode buffer layer.
Next, a coating solution for forming a luminescent layer was prepared. Specifically, 15 mg of the facial iridium complex compound (A) synthesized in Example 1 and 135 mg of poly(N-vinylcarbazole) were dissolved in 9850 mg of chloroform (guaranteed grade, manufactured by Wako Pure Chemical Industries, Ltd.). The solution obtained was filtrated through a filter having a pore diameter of 0.2 μm to give a coating solution. Then, the coating solution was applied on the anode buffer layer by a spin coating method at 3000 rpm for a coating time of 30 seconds. The coating was dried at room temperature (25° C.) for 30 minutes, whereby a luminescent layer was formed. […] Next, the substrate on which the luminescent layer was formed was placed in a vapor deposition apparatus. Barium was deposited in a thickness of 5 nm at a deposition rate of 0.01 nm/second. Subsequently, aluminum was deposited as cathodes in a thickness of 150 nm at a deposition rate of 1 nm/second. Consequently, a device 1 was manufactured. The barium/aluminum layers formed two stripes having a width of 3 mm which were orthogonal to the extending direction of the anodes. Thus, four organic EL devices 4 mm in length and 3 mm in width were prepared on the glass substrate.
The organic EL device was allowed to emit light by application of a voltage by means of programmable direct-current voltage/current source TR6143 manufactured by ADVANTEST CORPORATION. The emission luminance thereof was measured by means of luminance meter BM-8 manufactured by TOPCON CORPORATION. […] The luminance half-life in Table 2 is a relative value based on the measured value (100) of a device 7 described later.
Devices 2 to 6 were prepared by the same method as producing the device 1, except that the facial complex compound (A) was changed to the luminescent materials shown in Table 2. The luminescent characteristics of these devices were evaluated in the same manner as in the device 1.
Devices 7 and 8 were prepared by the same method as producing the device 1, except that the facial complex compound (A) was changed to the luminescent materials shown in Table 2. The luminescent characteristics of these devices were evaluated in the same manner as in the device 1.

SMILES | External quantum efficiency (%) | Emission Uniformity | Luminescent color
CCCCCc1ccnc(-c2c(F)cc(F)c[c]2[Ir]([c]2cc(F)cc(F)c2-c2cc(CCCCC)ccn2)[c]2cc(F)cc(F)c2-c2cc(CCCCC)ccn2)c1 [Compound (B) facial complex] | 5.7 | Uniform | Blue
CCCc1cc(-c2c(F)cc(F)c[c]2[Ir]([c]2cc(F)cc(F)c2-c2cc(CCC)c(CC)cn2)[c]2cc(F)cc(F)c2-c2cc(CCC)c(CC)cn2)ncc1CC [Compound (D) facial complex] | 6.4 | Uniform | Blue
CCCCC(CCCC)c1ccnc(-c2c(F)cc(F)c[c]2[Ir]([c]2cc(F)cc(F)c2-c2cc(C(CCCC)CCCC)ccn2)[c]2cc(F)cc(F)c2-c2cc(C(CCCC)CCCC)ccn2)c1 [Compound (C) facial complex] | 6.1 | Uniform | Blue
CC(C)(C)c1ccnc(-c2[c-]cc(F)cc2F)c1.CC(C)(C)c1ccnc(-c2[c-]cc(F)cc2F)c1.CC(C)(C)c1ccnc(-c2[c-]cc(F)cc2F)c1.[Ir+3] [Compound (A) meridional complex] | 5.2 | Uniform | Blue
